# Source: PubChem BioAssay AID2551 (National Center for Advancing Translational Sciences (NCATS), 2010)
# By UniProt entry, the sequences of proteins in these tests, tags left out. Where a name states a change or a piece, a line headed by the entry shows the natural chain unless it says otherwise.
# UniProt P51450: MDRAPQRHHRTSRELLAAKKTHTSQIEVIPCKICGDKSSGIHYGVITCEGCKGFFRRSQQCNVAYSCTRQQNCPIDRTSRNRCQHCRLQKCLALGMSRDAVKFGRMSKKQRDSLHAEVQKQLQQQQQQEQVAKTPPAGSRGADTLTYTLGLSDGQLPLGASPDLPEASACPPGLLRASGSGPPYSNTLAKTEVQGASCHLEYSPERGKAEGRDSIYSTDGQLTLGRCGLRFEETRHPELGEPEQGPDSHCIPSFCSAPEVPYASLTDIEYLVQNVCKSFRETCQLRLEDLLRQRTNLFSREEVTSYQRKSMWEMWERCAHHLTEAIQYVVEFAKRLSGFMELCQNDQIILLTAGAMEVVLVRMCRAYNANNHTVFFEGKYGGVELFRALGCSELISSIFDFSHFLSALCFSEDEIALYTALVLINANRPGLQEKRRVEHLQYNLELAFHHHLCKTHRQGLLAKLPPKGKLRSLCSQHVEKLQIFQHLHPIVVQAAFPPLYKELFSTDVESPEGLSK
# In all, about 310,000 compounds went through this assay and about 17,000 (5.5%) were called active. Inconclusive results, whose numbers are uncertain, are shown with a selection of clear calls. The call rests on the fitted dose curve; in most records, active means well fitted inhibition curve with a large enough effect; inconclusive means small, poorly fitted or top-dose-only effect, or effect the other way; inactive means no such curve, though single readings can be large or run the other way. Potencies of inconclusive entries are doubtful fits and often do not repeat.
# Target: Nuclear receptor ROR-gamma (Mus musculus) (UniProt P51450)
# Experiment: qHTS for inhibitors of ROR gamma transcriptional activity; further: nearly all actives have a fitted effect of over 60% in size
# Settings: Drosophila S2 Gal4-RORgamma UAS-luciferase reporter, 20 h; series mostly up to 53.6 µM
# In short: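 Drosophila Schneider cells stably carrying a metallothionein-driven Gal4 DBD–ROR gamma fusion and a UAS-Photinus luciferase reporter were exposed to compound for 1 hr, then induced with copper sulfate (700 uM final) for 20 hr at ambient temperature before luminescence reading.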
# Potency means the concentration at half of the fitted maximal effect.
row,SMILES,Potency
1,c1ccc(-c2nc3ccccc3nc2-c2ccccn2)nc1,inactive
2,COCCCNC(=O)c1cccc(C(=O)NCCCOC)c1,"inconclusive: 31.6 µM [inhibitor, single point]"
3,COc1ccccc1CCC(=O)Nc1nc2ccccc2[nH]1,"inconclusive: 14.1 µM [inhibitor, single point]"
4,COC(=O)c1sc2nc(-c3ccco3)ccc2c1N,"inconclusive: 5.01 µM [activator, single point]"
5,O=C(Nc1ccccc1)c1sc(N2CCOCC2)nc1-c1ccccc1,"inconclusive: 31.6 µM [activator, single point]"
6,Cc1c(O)nc(SCC(=O)Nc2ccc3c4c(cccc24)CC3)n(-c2ccccc2)c1=O,"inconclusive: 20 µM [activator, single point]"
7,COc1ccc(CCN(C)c2ncnc3sccc23)cc1OC,"inconclusive: 0.708 µM [activator, partial curve, poor fit]"
8,CCOCCn1c(-c2ccc(OC)cc2)nc2ccccc21,"inconclusive: 20 µM [inhibitor, partial curve, poor fit]"
9,CC(=O)c1c(C)nc2sc3c(=N)n(N)cnc3c2c1-c1ccc(Cl)cc1,"inconclusive: 11.2 µM [inhibitor, partial curve, poor fit]"
10,CCCNC(=O)c1cc(S(=O)(=O)N2CCc3ccccc32)cn1C,"inconclusive: 10 µM [activator, partial curve]"
11,O=C(Cn1cnc2c(nnn2-c2ccc(F)cc2)c1=O)N1CCCc2ccccc21,inactive
12,Cc1ccccc1NC(=O)CN(C)S(=O)(=O)c1ccc(-c2ccc(=O)[nH]n2)s1,inactive
13,COc1ccc(C(=O)Nc2c(Cl)cc(Cl)cc2C(=O)NCc2ccco2)cc1,"inconclusive: 3.98 µM [activator, single point]"
14,O=C(O)C(Cc1ccc(F)cc1)c1ccccc1 (configuration not stated),inactive
15,COC(=O)/C(C)=C/CC12OC(C)(C)C3CC(C=C4C(=O)c5cc6c(c(CCC(C)(C)Cl)c5OC431)OC1(C)CCC(=C(C)C)C6C1)C2=O (configuration not stated),inactive
16,O=C(NC1CCCC1)C(c1cccnc1)N(Cc1ccccc1)C(=O)c1csnn1 (configuration not stated),inactive
17,Cc1nn(-c2ccccc2)c(C)c1NC(=O)COC(=O)c1cc([N+](=O)[O-])ccc1NCCO,"inconclusive: 35.5 µM [activator, single point]"
18,COc1cccc(/C=N/Nc2nnc(C)n2N)c1O,active: 2.24 µM
19,CCNC(=S)N/N=C(\C)c1ccco1,active: 3.98 µM
20,NC[C@@H]1O[C@H](c2ccccc2)Cc2c1ccc(O)c2O,active: 28.2 µM
21,Cc1cccc(OCCCOc2cccc3cccnc23)c1C,active: 12.6 µM
22,COc1ccc(NC(=O)CC(C)CC(=O)NCc2ccccc2)c(OC)c1 (configuration not stated),inactive
23,O=C(Nc1ncc([N+](=O)[O-])s1)c1ccccc1Br,"inconclusive: 5.62 µM [activator, partial curve]"
24,Cc1ccc2c(nc3s/c(=C/c4cccs4)c(=O)n32)c1C,"inconclusive: 10 µM [inhibitor, single point]"

row,SMILES,Potency
1,CCCCc1c(C)nc2ccccc2c1SCCC#N,"inconclusive: 12.6 µM [activator, single point]"
2,COc1ccccc1NC(=O)CSc1nnnn1-c1ccc(C)cc1,"inconclusive: 0.708 µM [activator, full curve, poor fit]"
3,Cc1cnc(NC(=O)NCC2CCCC(CNC(=O)Nc3ncc(C)s3)C2)s1 (configuration not stated),"inconclusive: 8.91 µM [activator, partial curve]"
4,COc1ccc(C2(C(=O)NCCc3ccccc3)CCCC2)cc1OC,inactive
5,O=C(CN1CCCC1)Nc1ccccc1Sc1ccc(Cl)cc1,inactive
6,NS(=O)(=O)c1ccc(NCc2cc(Cl)ccc2OCc2ccc(F)cc2)cc1,"inconclusive: 22.4 µM [activator, single point]"
7,COc1ccc(Cl)cc1N(CC(=O)N1CCCCCC1)S(C)(=O)=O,inactive
8,COc1ccc(-c2cc(C(=O)n3cnc4ccccc43)c3ccccc3n2)cc1,"inconclusive: 22.4 µM [inhibitor, single point]"
9,O=C(CCS(=O)(=O)c1ccc(Br)s1)N1CCc2ccccc21,"inconclusive: 10 µM [activator, partial curve]"
10,O=C(CC1C(=O)NC2CCCCC2N1C(=O)c1ccc([N+](=O)[O-])cc1)Nc1ccccc1 (configuration not stated),inactive
11,O=C(NNc1nc(-c2ccc(Br)cc2)cs1)c1ccco1,active: 5.62 µM
12,Cc1ccc(N2CC(C(=O)NCc3cccnc3)CC2=O)cc1 (configuration not stated),"inconclusive: 5.62 µM [inhibitor, single point]"
13,CCOC(=O)C1=C(CN2CCN(c3ccc(F)cc3)CC2)NC(=O)NC1c1cccs1 (configuration not stated),"inconclusive: 0.141 µM [inhibitor, single point]"
14,COc1cccc(C(c2sc3ncnn3c2O)N2CC(C)OC(C)C2)c1 (configuration not stated),inactive
15,Cn1c(=O)c2c(nc(CN3CCN(Cc4ccccc4)CC3)n2CCN2CCOCC2)n(C)c1=O,active: 1.58 µM
16,Cc1cccc(C(=O)N/N=C2\CS(=O)(=O)N(C)c3ccsc32)c1,"inconclusive: 0.501 µM [inhibitor, full curve, poor fit]"
17,COc1cc(C=O)ccc1OCCSc1ccc(Cl)cc1,"inconclusive: 22.4 µM [inhibitor, single point]"
18,Cc1cc(C)cc(NC(=S)NCc2cccnc2)c1,"inconclusive: 15.8 µM [inhibitor, single point]"
19,CC/C(C)=N/Nc1nc(-c2cc3cccc(OC)c3oc2=O)cs1,"inconclusive: 15.8 µM [inhibitor, single point]"
20,COC(=O)Cc1ccc2sc(-c3ccccc3)nc2c1,"inconclusive: 15.8 µM [inhibitor, single point]"
21,Cc1nc2sc(C)c(C)c2c(=O)[nH]1,"inconclusive: 17.8 µM [activator, single point]"
22,CCc1ccc(/C=C2\SC(N3CCOCC3)=NC2=O)cc1,"inconclusive: 15.8 µM [activator, single point]"
23,Cc1cc(C(=O)NCC(=O)OCC(=O)N(C)C2CCCCC2)ccc1[N+](=O)[O-],"inconclusive: 35.5 µM [activator, single point]"

# Looked up above:
# Value for Cc1cccc(OCCCOc2cccc3cccnc23)c1C under Potency: active: 12.6 µM
# Value for COC(=O)/C(C)=C/CC12OC(C)(C)C3CC(C=C4C(=O)c5cc6c(c(CCC(C)(C)Cl)c5OC431)OC1(C)CCC(=C(C)C)C6C1)C2=O (configuration not stated) under Potency: inactive
# Value for CCNC(=S)N/N=C(\C)c1ccco1 under Potency: active: 3.98 µM
